Structures can show the parent of a compound that is named as a salt. The list shows a part of the results. Repeats are few or missing, and single values can be far off.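 Labelled rat cortical synaptosomes were engulfed by primary human fetal astrocytes. Engulfment equaled a red/green ratio, corrected for calcein live-cell signal and normalized to the plate median. Compounds were toxic when calcein dropped over 30%, and reduced phagocytosis when below 70% of the median above 5 µM.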
Legend:
[1] = system: Human fetal astrocytes; assay: loss of total cells relative to no-compound high-control median (toxicity); higher = more toxic (fewer cells); settings: 24 h
[2] = system: Human fetal astrocytes; assay: synaptosome phagocytosis (pHrodo/calcein intensity ratio) relative to plate median of data wells; higher = more phagocytosis; settings: 24 h

| Compound | loss of total cells ([1]; 1.39 µM) [%] | loss of total cells ([1]; 2.78 µM) [%] | loss of total cells ([1]; 5.56 µM) [%] | loss of total cells ([1]; 11.11 µM) [%] | loss of total cells ([1]; 22.22 µM) [%] | synaptosome phagocytosis ([2]; 1.39 µM) [%] | synaptosome phagocytosis ([2]; 2.78 µM) [%] | synaptosome phagocytosis ([2]; 5.56 µM) [%] | synaptosome phagocytosis ([2]; 11.11 µM) [%] | synaptosome phagocytosis ([2]; 22.22 µM) [%] |
| --- | --- | --- | --- | --- | --- | --- | --- | --- | --- | --- |
| C[C@]12CCC(=O)C=C1CC[C@@H]1[C@@H]2CC[C@@]2(C)[C@H]1CC[C@]2(O)C(=O)CO [Cortexolone] | -2.2 | -7.5 | -27 | -22.6 | -37 | 92.2 | 101 | 84.9 | 112 | 93.6 |
| O=C(O)C1CCCNC1 (racemic) [(±)-Nipecotic acid] | 9.2 | -0.3 | -3.2 | 3.1 | 4.1 | 145 | 131 | 112 | 102 | 135 |
| CC[C@H](CO)Nc1nc(NCc2ccccc2)c2ncn(C(C)C)c2n1 [Roscovitine] | -13.4 | -5.7 | -0.6 | 1.1 | -1.6 | 126 | 107 | 110 | 88.4 | 60.6 |
| CC(=O)N[C@@H](Cc1c[nH]c2ccccc12)C(=O)OCc1cc(C(F)(F)F)cc(C(F)(F)F)c1 | -24.6 | -13.2 | 4.1 | -19.3 | 1.9 | 71.3 | 114 | 118 | 89.6 | 88.6 |
| CN(C)c1cc2c(Nc3ccc4c(cnn4Cc4ccccc4)c3)ncnc2cn1 | -11.3 | -21.4 | 3.3 | -13 | 0.8 | 102 | 86.3 | 114 | 73.1 | 85.3 |
| COC(=O)c1c(C)[nH]c(C)c1C(=O)c1ccccc1Cc1ccccc1 | 3.8 | -35.9 | -11.5 | -14.8 | -2.4 | 125 | 119 | 89.7 | 96.5 | 128 |
| CC[N+](CC)(CC)CC [Tetraethylammonium chloride] | -15.2 | -1.5 | -5.6 | -8.8 | -29.6 | 130 | 116 | 84.6 | 114 | 129 |
| Cc1cc(C)c(NC(=O)C[C@H](CC(=O)O)c2cccc3ccccc23)c(C(=O)N2CCC3(CCCC3)CC2)c1 | -8.1 | -4.1 | 19.2 | 2.9 | 23.4 | 106 | 116 | 88.6 | 95.9 | 86.8 |
| Cc1nc2n(c(=O)c1CCN1CCC(c3noc4cc(F)ccc34)CC1)CCCC2 [Risperidone] | -0.9 | -14.7 | -9.6 | 3.4 | -1.6 | 87.8 | 91.7 | 94 | 114 | 87.9 |
| Nc1ncnc2c1ncn2C1OC(C(=O)NC2CC2)C(O)C1O (stereo not given) [5'-(N-Cyclopropyl)carboxamidoadenosine] | 1.5 | -8.1 | -18 | -14.8 | -10.2 | 121 | 62.9 | 78.9 | 103 | 107 |
| c1cc(CN2CCCCC2)cc(OCCCNc2nc3ccccc3s2)c1 | -17.1 | -32.6 | -8.4 | 8 | -9.9 | 60 | 90.2 | 97.9 | 101 | 79.1 |
| Nc1ncnc2c1c(-c1ccc(Oc3ccccc3)cc1)cn2C1CCCC1 | 4.6 | 1.7 | 17.3 | 19.3 | 70.4 | 126 | 100 | 128 | 103 | 86 |
| CC1(C)CCC=[N+]1[O-] [5,5-Dimethyl-1-pyrroline-N-oxide] | 2.1 | -5.1 | 20.6 | -15.7 | -3.2 | 82.6 | 111 | 107 | 97.9 | 83.6 |
| CCOC(=O)C1=C(C)NC(C)=C(C(=O)OC)C1c1cccc([N+](=O)[O-])c1 (stereo not given) [Nitrendipine] | -10 | -1.4 | -15.5 | -12.4 | -6.5 | 93.2 | 120 | 88.8 | 135 | 104 |
| CCCCCCCCCCCCCCCCCC(=O)OC(CC(=O)O)C[N+](C)(C)C (racemic) [DL-Stearoylcarnitine chloride] | 2.8 | -6.3 | -9 | -11.9 | -6.6 | 110 | 99.5 | 92 | 87 | 84.7 |
| NC[C@@H]1O[C@H](C23CC4CC(CC(C4)C2)C3)Cc2c1ccc(O)c2O | -29.7 | -9.3 | -8.8 | -18.4 | 24.4 | 81.5 | 94.1 | 102 | 97.1 | 71.7 |
| N=C(N)c1ccc(OCCCCCOc2ccc(C(=N)N)cc2)cc1 [Pentamidine isethionate] | -11.8 | 7.7 | 9.9 | 10.5 | 19.6 | 107 | 128 | 89.2 | 111 | 96.5 |
| O=C(O)CNC(=O)C(CS)Cc1ccccc1 (racemic) [DL-Thiorphan] | -27 | -42.8 | -18 | -8.8 | -28.8 | 58.5 | 90.7 | 99.6 | 110 | 114 |
| COc1ccc(CCN(C)CCc2ccc(OC)c(OC)c2)cc1OC [YS-035 hydrochloride] | -29.5 | 0.9 | 10.1 | -15.7 | 1.6 | 81.5 | 98.3 | 84.1 | 109 | 63.1 |
| N#C/C(=C\c1ccc(O)c(O)c1)C(=O)NCCCc1ccccc1 [Tyrphostin AG 555] | -11.5 | -31.4 | -4.5 | 3.4 | -9.1 | 104 | 95.3 | 89.9 | 130 | 62 |

Sorted by number of heavy atoms (rising): some entries from above

| Compound | loss of total cells ([1]; 1.39 µM) [%] | loss of total cells ([1]; 2.78 µM) [%] | loss of total cells ([1]; 5.56 µM) [%] | loss of total cells ([1]; 11.11 µM) [%] | loss of total cells ([1]; 22.22 µM) [%] | synaptosome phagocytosis ([2]; 1.39 µM) [%] | synaptosome phagocytosis ([2]; 2.78 µM) [%] | synaptosome phagocytosis ([2]; 5.56 µM) [%] | synaptosome phagocytosis ([2]; 11.11 µM) [%] | synaptosome phagocytosis ([2]; 22.22 µM) [%] |
| --- | --- | --- | --- | --- | --- | --- | --- | --- | --- | --- |
| O=C(O)C1CCCNC1 (racemic) [(±)-Nipecotic acid] | 9.2 | -0.3 | -3.2 | 3.1 | 4.1 | 145 | 131 | 112 | 102 | 135 |
| CCOC(=O)C1=C(C)NC(C)=C(C(=O)OC)C1c1cccc([N+](=O)[O-])c1 (stereo not given) [Nitrendipine] | -10 | -1.4 | -15.5 | -12.4 | -6.5 | 93.2 | 120 | 88.8 | 135 | 104 |
| CCCCCCCCCCCCCCCCCC(=O)OC(CC(=O)O)C[N+](C)(C)C (racemic) [DL-Stearoylcarnitine chloride] | 2.8 | -6.3 | -9 | -11.9 | -6.6 | 110 | 99.5 | 92 | 87 | 84.7 |

Source: the supplement of paper PMC10689618
